Data as given in PubChem BioAssay AID504764 (Drosophila RNAi Screening Center, 2011).

Aim: 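Genome-wide screen for regulators of Notch-driven gene expression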 (primary screen)
System: Drosophila Kc167 cells
Reagents: long dsRNA against Drosophila genes
Timing: about 5 days (4 days dsRNA, then 24 h after transfection)
Treatment: transfection of constitutively active membrane-tethered Notch lacking the extracellular domain, read 24 h later
Measurement: 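Firefly luciferase from an E(spl)m3 reporter with active Notch, plus control-promoter and uninduced reporter wells for normalisation; unnormalised counts, duplicate wells a and b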
Scale: induced reporter light, run 1, well a and induced reporter light, run 1, well b: higher = more light from the Notch target reporter with active Notch; control promoter light, run 1, well a and control promoter light, run 1, well b: higher = more light from the viral control promoter (cell number, transfection, viability); uninduced reporter light, run 1, well a: higher = more light from the Notch target reporter without active Notch
Active means: 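Wells with low control signal or poorly matching duplicates excluded; duplicates averaged; per source plate, z beyond ±2 for induced/control log2 ratio or beyond ±1.8 for induced/uninduced marks a hit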
Calls: active = modifier hit (raised or lowered Notch signal); inactive = not a hit
The screen tested about 22,000 reagents; below is a random part of those that have a named target and a result. Over the whole deposit, 403 (1.9%) got an active call. 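Unnormalised raw counts per well; ratio z-scores behind the hit calls and whether each hit raises or lowers signal are not deposited.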 Names joined by + are all predicted targets of the reagent. No sequences are given here. Not given: the amount of reagent.

For CG17724 [DRSC06687], what does the deposit list?
induced reporter light, run 1, well a: 1.58e5; induced reporter light, run 1, well b: 1.59e5; control promoter light, run 1, well a: 1.53e5; control promoter light, run 1, well b: 1.50e5; uninduced reporter light, run 1, well a: 14842; Outcome: inactive

For ng1 [DRSC18802], what was measured?
induced reporter light, run 1, well a: 1.06e5; induced reporter light, run 1, well b: 92465; control promoter light, run 1, well a: 1.67e5; control promoter light, run 1, well b: 1.74e5; uninduced reporter light, run 1, well a: 7130; Outcome: inactive

For Hpf1 [DRSC12202], what was measured?
induced reporter light, run 1, well a: 1.31e5; induced reporter light, run 1, well b: 1.55e5; control promoter light, run 1, well a: 82730; control promoter light, run 1, well b: 87530; uninduced reporter light, run 1, well a: 11190; Outcome: inactive

What is on record for CG13733 [DRSC10061]?
induced reporter light, run 1, well a: 2.21e5; induced reporter light, run 1, well b: 2.01e5; control promoter light, run 1, well a: 2.67e5; control promoter light, run 1, well b: 2.03e5; uninduced reporter light, run 1, well a: 10192; Outcome: inactive

What did the screen give for CG2983 [DRSC00558]?
induced reporter light, run 1, well a: 1.40e5; induced reporter light, run 1, well b: 1.57e5; control promoter light, run 1, well a: 1.13e5; control promoter light, run 1, well b: 98990; uninduced reporter light, run 1, well a: 8735; Outcome: inactive

How did the screen score HIP + HIP-R [DRSC18245]?
induced reporter light, run 1, well a: 1.66e5; induced reporter light, run 1, well b: 2.13e5; control promoter light, run 1, well a: 2.17e5; control promoter light, run 1, well b: 2.43e5; uninduced reporter light, run 1, well a: 11525; Outcome: inactive

What did the screen give for CG17327 [DRSC15225]?
induced reporter light, run 1, well a: 3.53e5; induced reporter light, run 1, well b: 3.63e5; control promoter light, run 1, well a: 3.49e5; control promoter light, run 1, well b: 3.75e5; uninduced reporter light, run 1, well a: 25055; Outcome: inactive

For Ir94g [DRSC15231], what was measured?
induced reporter light, run 1, well a: 1.66e5; induced reporter light, run 1, well b: 1.53e5; control promoter light, run 1, well a: 1.88e5; control promoter light, run 1, well b: 1.67e5; uninduced reporter light, run 1, well a: 10740; Outcome: inactive

For CG9525 [DRSC03249], what was measured?
induced reporter light, run 1, well a: 1.16e5; induced reporter light, run 1, well b: 1.37e5; control promoter light, run 1, well a: 64070; control promoter light, run 1, well b: 80675; uninduced reporter light, run 1, well a: 15992; Outcome: inactive

What did the screen give for CG16998 [DRSC10235]?
induced reporter light, run 1, well a: 2.21e5; induced reporter light, run 1, well b: 1.65e5; control promoter light, run 1, well a: 1.67e5; control promoter light, run 1, well b: 1.83e5; uninduced reporter light, run 1, well a: 8535; Outcome: inactive

For CG31082 (retired record) [DRSC13775], what does the deposit list?
induced reporter light, run 1, well a: 1.49e5; induced reporter light, run 1, well b: 1.30e5; control promoter light, run 1, well a: 1.37e5; control promoter light, run 1, well b: 1.72e5; uninduced reporter light, run 1, well a: 11315; Outcome: inactive

How did the screen score CG11668 [DRSC14341]?
induced reporter light, run 1, well a: 3.02e5; induced reporter light, run 1, well b: 2.71e5; control promoter light, run 1, well a: 2.52e5; control promoter light, run 1, well b: 2.70e5; uninduced reporter light, run 1, well a: 21455; Outcome: inactive

No new results follow: 2 of the entries above.
HIP + HIP-R [DRSC18245] — induced reporter light, run 1, well a: 1.66e5; induced reporter light, run 1, well b: 2.13e5; control promoter light, run 1, well a: 2.17e5; control promoter light, run 1, well b: 2.43e5; uninduced reporter light, run 1, well a: 11525; Outcome: inactive
CG17327 [DRSC15225] — induced reporter light, run 1, well a: 3.53e5; induced reporter light, run 1, well b: 3.63e5; control promoter light, run 1, well a: 3.49e5; control promoter light, run 1, well b: 3.75e5; uninduced reporter light, run 1, well a: 25055; Outcome: inactive
